Results reported in the supplement of paper PMC12067093, “Discovery and optimisation of a covalent ligand for TRIM25 and its application to targeted protein ubiquitination” (Chemical Science, 2025).
The list shows a part of the results.

Amino acid sequences for entries named in this document (tags omitted). A change or cut given only in a name is not applied to a line headed by its entry.
UniProt Q969K3: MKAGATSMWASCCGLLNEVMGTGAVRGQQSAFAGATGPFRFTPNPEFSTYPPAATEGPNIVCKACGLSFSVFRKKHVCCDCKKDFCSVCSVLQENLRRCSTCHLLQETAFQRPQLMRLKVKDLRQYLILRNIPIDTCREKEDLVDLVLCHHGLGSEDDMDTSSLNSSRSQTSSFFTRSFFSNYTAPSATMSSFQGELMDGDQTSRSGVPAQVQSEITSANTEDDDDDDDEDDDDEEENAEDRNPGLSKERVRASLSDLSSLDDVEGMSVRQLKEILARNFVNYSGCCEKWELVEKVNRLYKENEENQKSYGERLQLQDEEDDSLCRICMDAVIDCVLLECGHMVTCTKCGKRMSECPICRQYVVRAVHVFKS
UniProt P35244: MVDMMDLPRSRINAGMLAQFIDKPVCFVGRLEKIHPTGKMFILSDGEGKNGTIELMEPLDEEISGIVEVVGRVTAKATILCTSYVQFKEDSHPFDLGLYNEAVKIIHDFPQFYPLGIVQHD
UniProt P13489: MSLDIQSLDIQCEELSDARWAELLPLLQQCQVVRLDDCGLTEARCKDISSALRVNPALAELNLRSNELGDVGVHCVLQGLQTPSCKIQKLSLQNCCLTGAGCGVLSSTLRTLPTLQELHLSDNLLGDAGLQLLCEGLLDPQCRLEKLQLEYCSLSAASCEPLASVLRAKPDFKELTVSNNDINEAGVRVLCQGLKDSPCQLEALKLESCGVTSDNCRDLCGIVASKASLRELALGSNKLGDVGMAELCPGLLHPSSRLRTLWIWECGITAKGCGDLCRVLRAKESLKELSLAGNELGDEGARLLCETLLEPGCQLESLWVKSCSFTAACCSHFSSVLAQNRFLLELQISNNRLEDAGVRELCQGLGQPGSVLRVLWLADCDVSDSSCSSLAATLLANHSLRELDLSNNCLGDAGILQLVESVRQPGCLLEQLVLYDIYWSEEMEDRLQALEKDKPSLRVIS
UniProt Q9H4P4: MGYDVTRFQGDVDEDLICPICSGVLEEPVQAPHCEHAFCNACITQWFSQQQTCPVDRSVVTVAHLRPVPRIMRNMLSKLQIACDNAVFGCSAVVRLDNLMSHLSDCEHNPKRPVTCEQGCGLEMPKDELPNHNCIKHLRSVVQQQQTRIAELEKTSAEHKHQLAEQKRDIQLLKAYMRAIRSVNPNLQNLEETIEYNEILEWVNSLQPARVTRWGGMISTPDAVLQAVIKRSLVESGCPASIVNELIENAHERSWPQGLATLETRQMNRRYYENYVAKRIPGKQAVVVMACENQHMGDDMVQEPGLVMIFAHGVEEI
UniProt O75695: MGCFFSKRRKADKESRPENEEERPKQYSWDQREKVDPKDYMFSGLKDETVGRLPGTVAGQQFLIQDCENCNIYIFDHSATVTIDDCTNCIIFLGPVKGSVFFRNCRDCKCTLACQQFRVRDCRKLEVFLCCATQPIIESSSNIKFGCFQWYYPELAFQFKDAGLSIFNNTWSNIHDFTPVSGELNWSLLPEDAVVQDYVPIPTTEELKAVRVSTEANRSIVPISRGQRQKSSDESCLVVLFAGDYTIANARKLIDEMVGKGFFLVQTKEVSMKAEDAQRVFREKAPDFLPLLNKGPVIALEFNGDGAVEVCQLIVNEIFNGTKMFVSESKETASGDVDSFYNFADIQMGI
UniProt Q9P0P0: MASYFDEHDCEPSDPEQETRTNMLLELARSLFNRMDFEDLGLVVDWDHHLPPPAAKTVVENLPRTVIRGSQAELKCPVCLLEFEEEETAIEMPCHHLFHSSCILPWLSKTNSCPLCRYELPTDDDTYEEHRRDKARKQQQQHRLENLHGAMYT
UniProt Q13464: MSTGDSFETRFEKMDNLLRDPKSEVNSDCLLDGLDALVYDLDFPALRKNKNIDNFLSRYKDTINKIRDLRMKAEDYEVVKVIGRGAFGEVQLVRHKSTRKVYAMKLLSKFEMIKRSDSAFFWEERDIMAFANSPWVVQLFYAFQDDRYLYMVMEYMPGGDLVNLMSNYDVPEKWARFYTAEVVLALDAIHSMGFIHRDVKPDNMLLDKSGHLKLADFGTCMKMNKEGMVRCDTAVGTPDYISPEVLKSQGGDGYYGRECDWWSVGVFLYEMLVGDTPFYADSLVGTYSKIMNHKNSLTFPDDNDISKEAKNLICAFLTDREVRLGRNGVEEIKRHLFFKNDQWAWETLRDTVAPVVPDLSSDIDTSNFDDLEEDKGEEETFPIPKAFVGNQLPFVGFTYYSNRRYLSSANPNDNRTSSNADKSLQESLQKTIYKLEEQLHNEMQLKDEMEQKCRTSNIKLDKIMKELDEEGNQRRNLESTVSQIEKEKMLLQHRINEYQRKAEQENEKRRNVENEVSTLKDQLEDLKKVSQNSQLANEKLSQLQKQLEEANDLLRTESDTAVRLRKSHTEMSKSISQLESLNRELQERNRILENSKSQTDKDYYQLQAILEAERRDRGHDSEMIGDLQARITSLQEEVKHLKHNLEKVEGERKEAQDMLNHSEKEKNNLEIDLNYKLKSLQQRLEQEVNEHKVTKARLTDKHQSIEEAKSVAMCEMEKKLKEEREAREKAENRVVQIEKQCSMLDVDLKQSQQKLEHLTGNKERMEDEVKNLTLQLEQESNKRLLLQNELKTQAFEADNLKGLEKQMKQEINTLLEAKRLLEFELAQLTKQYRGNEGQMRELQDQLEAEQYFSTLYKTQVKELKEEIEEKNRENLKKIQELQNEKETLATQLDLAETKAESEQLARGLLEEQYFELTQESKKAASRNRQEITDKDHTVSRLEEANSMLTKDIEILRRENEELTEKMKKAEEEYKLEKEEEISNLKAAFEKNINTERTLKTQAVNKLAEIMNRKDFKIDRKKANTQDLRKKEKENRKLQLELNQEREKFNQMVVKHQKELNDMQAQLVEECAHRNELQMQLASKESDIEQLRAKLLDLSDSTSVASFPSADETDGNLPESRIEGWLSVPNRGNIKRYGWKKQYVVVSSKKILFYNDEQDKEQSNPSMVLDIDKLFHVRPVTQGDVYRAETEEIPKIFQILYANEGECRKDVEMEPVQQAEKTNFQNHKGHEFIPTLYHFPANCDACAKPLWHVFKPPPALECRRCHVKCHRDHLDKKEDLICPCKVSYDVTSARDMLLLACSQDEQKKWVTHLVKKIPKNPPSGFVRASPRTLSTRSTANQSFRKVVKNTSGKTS
UniProt O43148, whole entry, looked up: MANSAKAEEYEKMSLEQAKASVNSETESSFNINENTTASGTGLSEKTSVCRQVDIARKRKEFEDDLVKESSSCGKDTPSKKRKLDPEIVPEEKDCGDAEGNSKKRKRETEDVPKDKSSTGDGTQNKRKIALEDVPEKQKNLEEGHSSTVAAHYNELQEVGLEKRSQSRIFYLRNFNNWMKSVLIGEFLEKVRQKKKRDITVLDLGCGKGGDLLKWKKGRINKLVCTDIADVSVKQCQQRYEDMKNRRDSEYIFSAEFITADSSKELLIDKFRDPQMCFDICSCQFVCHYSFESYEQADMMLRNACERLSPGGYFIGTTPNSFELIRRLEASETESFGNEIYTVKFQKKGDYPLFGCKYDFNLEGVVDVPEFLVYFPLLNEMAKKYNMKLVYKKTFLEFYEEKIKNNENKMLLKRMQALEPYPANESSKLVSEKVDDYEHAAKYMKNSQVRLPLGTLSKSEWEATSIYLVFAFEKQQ
UniProt P78345: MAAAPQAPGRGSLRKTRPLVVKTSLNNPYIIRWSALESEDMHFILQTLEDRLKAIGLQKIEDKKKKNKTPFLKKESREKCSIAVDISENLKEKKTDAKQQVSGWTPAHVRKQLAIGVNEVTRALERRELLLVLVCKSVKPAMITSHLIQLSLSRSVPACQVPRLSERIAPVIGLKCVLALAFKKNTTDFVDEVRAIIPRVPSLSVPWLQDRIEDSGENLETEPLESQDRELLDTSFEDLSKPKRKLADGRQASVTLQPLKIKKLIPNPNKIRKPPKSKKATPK
UniProt Q96P16: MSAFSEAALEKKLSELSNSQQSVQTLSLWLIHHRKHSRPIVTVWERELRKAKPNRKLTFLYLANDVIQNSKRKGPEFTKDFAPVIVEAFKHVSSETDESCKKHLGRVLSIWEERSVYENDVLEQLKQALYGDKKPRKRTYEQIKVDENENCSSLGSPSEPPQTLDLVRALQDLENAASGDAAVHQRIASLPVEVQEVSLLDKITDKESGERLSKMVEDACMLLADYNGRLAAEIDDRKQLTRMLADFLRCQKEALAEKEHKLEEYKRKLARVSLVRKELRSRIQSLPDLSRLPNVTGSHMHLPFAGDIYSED
UniProt O75116: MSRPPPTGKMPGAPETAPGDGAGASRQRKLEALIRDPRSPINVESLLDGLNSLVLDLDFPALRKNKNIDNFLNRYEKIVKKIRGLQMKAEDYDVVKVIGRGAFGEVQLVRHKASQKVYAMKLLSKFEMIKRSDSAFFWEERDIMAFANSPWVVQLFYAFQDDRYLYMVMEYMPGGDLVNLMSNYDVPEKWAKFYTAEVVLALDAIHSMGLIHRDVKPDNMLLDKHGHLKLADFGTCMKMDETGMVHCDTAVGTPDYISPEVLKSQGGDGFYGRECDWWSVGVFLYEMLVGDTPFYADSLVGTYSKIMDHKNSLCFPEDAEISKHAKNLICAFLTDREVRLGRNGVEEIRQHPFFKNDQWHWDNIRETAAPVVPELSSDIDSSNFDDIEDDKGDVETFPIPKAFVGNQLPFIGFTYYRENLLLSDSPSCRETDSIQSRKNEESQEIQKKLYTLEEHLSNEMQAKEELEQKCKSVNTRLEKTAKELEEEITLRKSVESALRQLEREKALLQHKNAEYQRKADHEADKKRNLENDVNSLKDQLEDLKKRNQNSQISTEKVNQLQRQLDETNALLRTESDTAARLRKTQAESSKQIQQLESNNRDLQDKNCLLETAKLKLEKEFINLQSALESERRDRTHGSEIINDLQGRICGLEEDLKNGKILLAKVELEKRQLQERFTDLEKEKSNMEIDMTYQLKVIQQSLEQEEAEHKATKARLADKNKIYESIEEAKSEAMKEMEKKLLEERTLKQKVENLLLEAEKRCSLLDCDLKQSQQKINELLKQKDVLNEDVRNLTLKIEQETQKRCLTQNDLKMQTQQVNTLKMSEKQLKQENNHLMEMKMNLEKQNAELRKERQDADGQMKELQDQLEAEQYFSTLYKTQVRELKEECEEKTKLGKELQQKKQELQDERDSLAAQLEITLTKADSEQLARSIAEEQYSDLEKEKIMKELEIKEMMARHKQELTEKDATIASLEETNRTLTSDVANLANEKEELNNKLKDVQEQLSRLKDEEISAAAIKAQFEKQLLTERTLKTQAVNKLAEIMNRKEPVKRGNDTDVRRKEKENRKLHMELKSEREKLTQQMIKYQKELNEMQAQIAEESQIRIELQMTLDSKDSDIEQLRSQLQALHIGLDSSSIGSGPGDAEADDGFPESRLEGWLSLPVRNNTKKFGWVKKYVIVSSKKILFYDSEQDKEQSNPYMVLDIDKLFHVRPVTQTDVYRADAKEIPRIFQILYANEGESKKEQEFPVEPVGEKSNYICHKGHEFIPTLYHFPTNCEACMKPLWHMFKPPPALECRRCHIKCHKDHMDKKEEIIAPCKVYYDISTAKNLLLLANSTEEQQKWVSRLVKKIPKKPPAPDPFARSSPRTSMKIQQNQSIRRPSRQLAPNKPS
UniProt Q9H7B2: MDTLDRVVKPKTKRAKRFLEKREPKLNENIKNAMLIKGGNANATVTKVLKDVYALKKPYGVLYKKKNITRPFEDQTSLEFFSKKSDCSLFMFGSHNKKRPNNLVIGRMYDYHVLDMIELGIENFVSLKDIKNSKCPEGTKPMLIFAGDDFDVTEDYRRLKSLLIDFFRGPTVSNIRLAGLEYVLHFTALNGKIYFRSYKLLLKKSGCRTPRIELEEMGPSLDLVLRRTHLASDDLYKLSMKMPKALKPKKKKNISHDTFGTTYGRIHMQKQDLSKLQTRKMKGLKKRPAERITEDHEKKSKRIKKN
UniProt P27694, whole entry, looked up: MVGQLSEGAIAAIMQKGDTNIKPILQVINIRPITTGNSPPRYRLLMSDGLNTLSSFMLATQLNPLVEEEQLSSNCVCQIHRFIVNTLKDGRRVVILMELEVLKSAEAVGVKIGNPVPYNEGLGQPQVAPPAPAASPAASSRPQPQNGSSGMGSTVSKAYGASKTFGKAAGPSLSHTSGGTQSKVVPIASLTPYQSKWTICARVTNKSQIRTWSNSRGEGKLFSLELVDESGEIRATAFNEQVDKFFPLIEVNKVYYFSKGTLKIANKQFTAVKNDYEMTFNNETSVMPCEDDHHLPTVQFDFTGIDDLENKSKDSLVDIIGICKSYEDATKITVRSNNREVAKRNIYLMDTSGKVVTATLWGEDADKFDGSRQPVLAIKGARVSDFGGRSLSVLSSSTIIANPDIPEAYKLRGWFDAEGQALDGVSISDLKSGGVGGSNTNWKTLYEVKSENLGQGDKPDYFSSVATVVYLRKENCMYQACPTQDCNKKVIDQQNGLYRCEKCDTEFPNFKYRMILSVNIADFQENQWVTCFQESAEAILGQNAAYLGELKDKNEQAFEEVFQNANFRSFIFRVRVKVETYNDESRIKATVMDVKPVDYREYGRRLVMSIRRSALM

compound: Cc1cc(ccc1-c1ccccc1)C(=O)N1CCCN(CC1)C(=O)CCl [compound 10]; experiment: probe-labelled cysteine peptide fold change vs DMSO (competition) (log2 fold change); higher = less target engagement (more negative = stronger competition); settings: 10 µM; THP-1; incubation time: 4 h
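Also: competitive profiling in live THP-1 cells: cysteine peptides tagged with an iodoacetamide desthiobiotin (IA-DTB) probe, intensity after compound treatment relative to DMSO-treated cells.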

Target	probe-labelled cysteine peptide fold change
RPL18A_Q02543_64_SSGEIVYCGQVFEK (UniProt Q02543)	-0.123
RPL17_P18621_144_INPYMSSPCHIEMILTEK (UniProt P18621)	0.211
RPL37A_P61513_57_AVGIWHCGSCMK (UniProt P61513)	-0.1
RNF34_Q969K3_340_ICMDAVIDCVLLECGHMVTCTK (UniProt Q969K3)	-0.0311
RPL11_P62913_150_TGCIGAK (UniProt P62913)	-0.0968
RPL5_P46777_76_IEGDMIVCAAYAHELPK (UniProt P46777)	0.0933
RPA3_P35244_81_ATILCTSYVQFK (UniProt P35244)	0.25
RNH1_P13489_152+159_LQLEYCSLSAASCEPLASVLR (UniProt P13489)	-0.155
RNF41_Q9H4P4_238_SLVESGCPASIVNELIENAHER (UniProt Q9H4P4)	0.0275
RNGTT_O60942_453_CDDILK (UniProt O60942)	-0.242
RP2_O75695_114_CTLACQQFR (UniProt O75695)	0.144
RNF181_Q9P0P0_116_TNSCPLCR (UniProt Q9P0P0)	0.0375
ROCK1_Q13464_1242+1245_GHEFIPTLYHFPANCDACAK (UniProt Q13464)	-0.117
RPL18A_Q02543_109_EYRDLTTAGAVTQCYR (UniProt Q02543)	-0.245
RPL37A_P61513_57+60_AVGIWHCGSCMK (UniProt P61513)	-0.116
RNMT_O43148_225_LVCTDIADVSVK (UniProt O43148)	-0.0542
RPL8_P62917_90_RTELFIAAEGIHTGQFVYCGKK (UniProt P62917)	-0.0864
RNF213_Q63HN8_1064_LCGTDEK (UniProt Q63HN8)	0.0175
RNH1_P13489_199_DSPCQLEALK (UniProt P13489)	-0.2

3 entries drawn at random from the list so far:
Target	probe-labelled cysteine peptide fold change
RNF41_Q9H4P4_238_SLVESGCPASIVNELIENAHER (UniProt Q9H4P4)	0.0275
RPL5_P46777_76_IEGDMIVCAAYAHELPK (UniProt P46777)	0.0933
RP2_O75695_114_CTLACQQFR (UniProt O75695)	0.144

Further entries

Target	probe-labelled cysteine peptide fold change
RPL4_P36578_250_FCIWTESAFR (UniProt P36578)	-0.0866
RPP38_P78345_80_CSIAVDISENLK (UniProt P78345)	-0.0949
RPRD1A_Q96P16_151_VDENENCSSLGSPSEPPQTLDLVR (UniProt Q96P16)	-0.0309
RNH1_P13489_330_SCSFTAACCSHFSSVLAQNR (UniProt P13489)	0.0965
RPL24_P83731_6_VELCSFSGYK (UniProt P83731)	0.129
RPIA_P49247_128_VKQENLNLVCIPTSFQAR (UniProt P49247)	0.147
RPL5_P46777_62_DIICQIAYAR (UniProt P46777)	0.0982
RNMT_O43148_356_KGDYPLFGCK (UniProt O43148)	0.107
ROCK2_O75116_428_ENLLLSDSPSCR (UniProt O75116)	-0.267
ROCK2_O75116_314_NSLCFPEDAEISK (UniProt O75116)	-0.0304
RPL12_P30050_141_EILGTAQSVGCNVDGR (UniProt P30050)	0.117
RNF213_Q63HN8_2503_EVLCDHMVDGQPLAEDSGLHIIAACNPYRK (UniProt Q63HN8)	0.0517
RPF2_Q9H7B2_135_CPEGTK (UniProt Q9H7B2)	-0.136
RPL30_P62888_92_VCTLAIIDPGDSDIIR (UniProt P62888)	0.194
RPL8_P62917_90_TELFIAAEGIHTGQFVYCGK (UniProt P62917)	0.0716
RNF169_Q8NCN4_337_CVSAPDLTIEK (UniProt Q8NCN4)	0.0213
RPA1_P27694_476_ENCMYQACPTQDCNK (UniProt P27694)	0.0438
RP2_O75695_131_LEVFLCCATQPIIESSSNIK (UniProt O75695)	0.131
RNF213_Q63HN8_3084_DQEYTQLCR (UniProt Q63HN8)	0.0389
